These are yes or no findings as the source states them, for the method shown. In cells and extracts the contact can be indirect. Some results given as binding are weak or reduced against the parent protein; the word gives no strength. For some assays here: Tags and fused reporters may be left off the sequences shown.

2 molecules from article PMC3681753 can be followed below.

For assay [1], the target named is FLAG-p65 (NF-κB RELA/p65 subunit) (human), Q04206. In words: co-IP; HEK 293T transfected 48 h with FLAG-tagged bait; extracts made after 16 h of IFN-α, GSK3 inhibitor BIO (5 µM) or SeV infection; immunoprecipitation against FLAG; blot with anti-FLAG and anti-CTNNB1 (endogenous CTNNB1). As to conditions: remark: other sources report otherwise.
Assay [2] shares this target. In words: co-IP; HEK 293T co-transfected 48 h with CTNNB1 and FLAG-tagged bait; extracts made after 16 h of SeV infection; immunoprecipitation against FLAG; blot with anti-FLAG and anti-CTNNB1. To be noted: remark: other sources report otherwise.

B1: endogenous CTNNB1 (β-catenin), P35222 1-781 (protein)
chain: MATQADLMELDMAMEPDRKAAVSHWQQQSYLDSGIHSGATTTAPSLSGKGNPEEEDVDTSQVLYEWEQGFSQSFTQEQVADIDGQYAMTRAQRVRAAMFPETLDEGMQIPSTQFDAAHPTNVQRLAEPSQMLKHAVVNLINYQDDAELATRAIPELTKLLNDEDQVVVNKAAVMVHQLSKKEASRHAIMRSPQMVSAIVRTMQNTNDVETARCTAGTLHNLSHHREGLLAIFKSGGIPALVKMLGSPVDSVLFYAITTLHNLLLHQEGAKMAVRLAGGLQKMVALLNKTNVKFLAITTDCLQILAYGNQESKLIILASGGPQALVNIMRTYTYEKLLWTTSRVLKVLSVCSSNKPAIVEAGGMQALGLHLTDPSQRLVQNCLWTLRNLSDAATKQEGMEGLLGTLVQLLGSDDINVVTCAAGILSNLTCNNYKNKMMVCQVGGIEALVRTVLRAGDREDITEPAICALRHLTSRHQEAEMAQNAVRLHYGLPVVVKLLHPPSHWPLIKATVGLIRNLALCPANHAPLREQGAIPRLVQLLVRAHQDTQRRTSMGGTQQQFVEGVRMEEIVEGCTGALHILARDVHNRIVIRGLNTIPLFVQLLYSPIENIQRVAAGVLCELAQDKEAAEAIEAEGATAPLTELLHSRNEGVATYAAAVLFRMSEDKPQDYKKRLSVELTSSLFRTEPMAWNETADLGLDIGAQGEPLGYRQDDPSYRSFHSGGYGQDALGMDPMMEHEMGGHHPGADYPVDGLPDLGHAQDLMDGLPPGDSNQLAWFDTDL
For the molecule B1, the binding result in assay [1] is reported as “binds”.

B2: exogenous CTNNB1 (β-catenin), untagged, P35222 1-781 (protein)
chain: MATQADLMELDMAMEPDRKAAVSHWQQQSYLDSGIHSGATTTAPSLSGKGNPEEEDVDTSQVLYEWEQGFSQSFTQEQVADIDGQYAMTRAQRVRAAMFPETLDEGMQIPSTQFDAAHPTNVQRLAEPSQMLKHAVVNLINYQDDAELATRAIPELTKLLNDEDQVVVNKAAVMVHQLSKKEASRHAIMRSPQMVSAIVRTMQNTNDVETARCTAGTLHNLSHHREGLLAIFKSGGIPALVKMLGSPVDSVLFYAITTLHNLLLHQEGAKMAVRLAGGLQKMVALLNKTNVKFLAITTDCLQILAYGNQESKLIILASGGPQALVNIMRTYTYEKLLWTTSRVLKVLSVCSSNKPAIVEAGGMQALGLHLTDPSQRLVQNCLWTLRNLSDAATKQEGMEGLLGTLVQLLGSDDINVVTCAAGILSNLTCNNYKNKMMVCQVGGIEALVRTVLRAGDREDITEPAICALRHLTSRHQEAEMAQNAVRLHYGLPVVVKLLHPPSHWPLIKATVGLIRNLALCPANHAPLREQGAIPRLVQLLVRAHQDTQRRTSMGGTQQQFVEGVRMEEIVEGCTGALHILARDVHNRIVIRGLNTIPLFVQLLYSPIENIQRVAAGVLCELAQDKEAAEAIEAEGATAPLTELLHSRNEGVATYAAAVLFRMSEDKPQDYKKRLSVELTSSLFRTEPMAWNETADLGLDIGAQGEPLGYRQDDPSYRSFHSGGYGQDALGMDPMMEHEMGGHHPGADYPVDGLPDLGHAQDLMDGLPPGDSNQLAWFDTDL
In the case of B2, the binding entry in assay [2] is reported as “binds”.
